# From PubChem BioAssay AID624094 (National Center for Advancing Translational Sciences (NCATS), 2012)
# Protein sequences, listed by entry. Tags and fused reporters are not part of them. Lines headed by an entry give the natural chain unless they say otherwise; changes in a name come on top.
# UniProt Q9HAZ1: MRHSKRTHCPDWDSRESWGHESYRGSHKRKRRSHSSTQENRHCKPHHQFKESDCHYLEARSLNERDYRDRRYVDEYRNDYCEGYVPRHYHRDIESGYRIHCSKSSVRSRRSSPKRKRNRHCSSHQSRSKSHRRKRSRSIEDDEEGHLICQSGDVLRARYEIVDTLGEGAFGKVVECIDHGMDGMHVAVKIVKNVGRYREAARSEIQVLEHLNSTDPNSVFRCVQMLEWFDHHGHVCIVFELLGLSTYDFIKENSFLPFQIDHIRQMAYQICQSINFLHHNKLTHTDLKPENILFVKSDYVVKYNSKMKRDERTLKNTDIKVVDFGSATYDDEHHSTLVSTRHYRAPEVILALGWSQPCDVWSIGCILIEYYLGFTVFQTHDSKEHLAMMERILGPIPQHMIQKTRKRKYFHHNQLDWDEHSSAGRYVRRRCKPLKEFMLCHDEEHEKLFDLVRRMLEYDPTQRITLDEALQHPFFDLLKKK
# Inconclusive means that the source gave no clear call. Such entries were picked first, then a sample of the others. Potencies of inconclusive entries are doubtful fits and often do not repeat. The source made the active and inactive calls. Calls come from the whole dose curve; as a rule, active = well fitted inhibition curve with a large enough effect; inconclusive = small, poorly fitted or top-dose-only effect; inactive = flat fitted curve, though single readings scatter.
# Molecular target: Dual specificity protein kinase CLK4 (Homo sapiens) (UniProt Q9HAZ1)
# Experiment: Confirmation Assay for Inhibitors of Clk4 (Kinase-Glo Assay): KU probe
# Conditions: recombinant Clk4, Kinase-Glo ATP luminescence; series mostly up to 76.9 µM; activity, negative = inhibition: at the top concentration
# Method: NIH Molecular Libraries Probe Production Centers Network [MLPCN] NIH Chemical Genomics Center [NCGC] MLPCN Grant: 1R03MH084827-01 Assay Submitter (PI): Tom Misteli NCGC Assay Overview: Clk4 (Invitrogen, cat# PV3839) was assayed using ATP and the RS repeat peptide (AnaSpec cat # 61722) as substrates. Following the Clk4 reaction, the remaining ATP levels were detected using Promega Kinase-Glo technology wherein the remaining ATP from the kinase reaction is detected using Ultra-Glo luciferase and D-luciferin which generates a bioluminescence signal from the ATP.
# NCGC Assay Protocol Summary: Two uL/well of substrate-buffer solution (100 uM RS peptide, 1 uM ATP, 25 mM Tris pH7.5, 10 mM MgCl2, 0.5 mM EGTA, 2.5 mM DTT, 0.01% Triton X-100 final concentration) was dispensed into 1536-well, assay plates (Greiner, solid white medium-binding plates) with Aurora Discovery BioRAPTR Flying Reagent Dispenser (FRD; Beckton-Dickenson). Using a Kalypsys pin tool equipped with a 1536-pin tool, 23 nL of compound solution was transferred to the assay plate. One uL/ well Clk4-buffer solution (25 nM Clk4, 25 mM Tris pH 7.5, 10 mM MgCl2, 0.5 mM EGTA, 2.5 mM DTT, 0.01% Triton X-100, final concentrations) was then added using the FRD yielding a total kinase reaction volume of 3 uL/ well. After 4.5 hours of room temperature incubation, 3 uL Kinase-Glo reagent was added for a final assay volume of 6 uL/ well. Luminescence was detected with the ViewLux plate reader (Perkin Elmer, Waltham, MA) after 5 min incubation using a 5 second exposure time and 2x binning.
SMILES,Potency,"activity, negative = inhibition"
Fc1cc(F)cc(CNc2ccnc(-c3ccc4c(c3)OCO4)n2)c1,"inconclusive: 5.19 µM [inhibitor, full curve]",–
c1cncc(CNc2ccnc(-c3cccc4ccccc34)n2)c1,"inconclusive: 16.4 µM [inhibitor, partial curve, poor fit]",–
Cc1ccc(CNc2ccnc(-c3ccc(N(C)C)cc3)n2)cc1,–,inactive: 3.14%
CN(C)c1ccc(-c2nccc(NCc3ccc(Cl)c(Cl)c3)n2)cc1,"inconclusive: 51.9 µM [inhibitor, partial curve, poor fit]",–
Cc1noc(C)c1-c1ncccn1,–,inactive: -5.28%
Cc1ccc(CNc2ccnc(-c3ccc4c(c3)OCO4)n2)cc1,"inconclusive: 23.2 µM [inhibitor, partial curve]",–
COc1ccc(CNc2ccnc(-c3ccc4c(c3)OCO4)n2)cc1,"inconclusive: 36.8 µM [inhibitor, partial curve, poor fit]",–
Cc1noc(C)c1-c1nccc(NCc2ccc(Cl)c(Cl)c2)n1,–,inactive: -4.48%
FC(F)(F)c1cccc(CNc2ccnc(-c3ccc4c(c3)OCO4)n2)c1,"inconclusive: 13 µM [inhibitor, full curve]",–
Cc1ccc(CNc2ccnc(-c3c(C)noc3C)n2)cc1,"inconclusive: 36.8 µM [inhibitor, partial curve, poor fit]",–
O=C(O)c1ccc(-c2ccc3ncnc(N4CCOCC4)c3c2)o1,active: 0.582 µM,–
COc1ccc(-c2nccc(NCc3ccc(Cl)cc3)n2)cc1,"inconclusive: 13 µM [inhibitor, full curve]",–
CN(C)c1ccc(-c2nccc(NCc3ccc(Cl)cc3)n2)cc1,–,inactive: -6.08%
COc1ccc(-c2nccc(NCc3ccc(C)cc3)n2)cc1,"inconclusive: 7.33 µM [inhibitor, partial curve, poor fit]",–
COc1ccc(CNc2ccnc(-c3ccc(N(C)C)cc3)n2)cc1,–,inactive: -2.14%
O=[N+]([O-])c1ccc(CNc2ccnc(-c3ccc4c(c3)OCO4)n2)cc1,"inconclusive: 16.4 µM [inhibitor, partial curve]",–
Clc1ccc(CNc2nccc(-c3ccc4c(c3)OCCO4)n2)cc1Cl,active: 0.116 µM,–
Fc1ccc(CNc2ccnc(-c3ccc4c(c3)OCO4)n2)cc1Br,active: 13 µM,–

SMILES,Potency,"activity, negative = inhibition"
COc1ccc(-c2ncccn2)cc1,"inconclusive: 29.2 µM [inhibitor, partial curve]",–
Brc1ccc(CNc2ccnc(-c3ccc4c(c3)OCO4)n2)cc1Br,"inconclusive: 9.23 µM [inhibitor, full curve]",–
CN(C)c1ccc(-c2nccc(NCc3ccccc3)n2)cc1,–,inactive: -7.91%
COc1ccc(CNc2ccnc(-c3c(C)noc3C)n2)cc1,–,inactive: -2.38%
COc1ccc(CNc2ccnc(-c3ccc(OC)cc3)n2)cc1,"inconclusive: 36.8 µM [inhibitor, partial curve]",–
c1cnc(-c2ccc3c(c2)OCO3)nc1,"inconclusive: 23.2 µM [inhibitor, partial curve, poor fit]",–
c1csc(-c2ccnc(-c3ccc4c(c3)OCO4)n2)c1,"inconclusive: 6.54 µM [inhibitor, partial curve, poor fit]",–
COc1ccc(-c2nccc(NCc3ccccc3)n2)cc1,"inconclusive: 29.2 µM [inhibitor, single point]",–
N#Cc1cccc(-c2ncccn2)c1,"inconclusive: 26 µM [inhibitor, partial curve, poor fit]",–
O=C(Nc1ccnc(-c2ccc3c(c2)OCO3)n1)c1cnc(Cl)c(Cl)c1,–,inactive: -17.8%
O=C(Nc1ccnc(-c2ccc3c(c2)OCO3)n1)c1ccncn1,"inconclusive: 4.12 µM [inhibitor, full curve]",–
Clc1ccc(CNc2ccnc(-c3ccc4c(c3)OCO4)n2)cc1,"inconclusive: 41.2 µM [inhibitor, single point]",–
CN(C)c1ccc(-c2ncccn2)cc1,–,inactive: -17.6%
c1ccc(CNc2ccnc(-c3ccc4c(c3)OCO4)n2)nc1,"inconclusive: 9.23 µM [inhibitor, full curve]",–
CN(CC1CCCCC1)c1ncnc2ccc(-c3ccc4c(c3)OCO4)cc12,active: 0.184 µM,–
Cc1noc(C)c1-c1nccc(NCc2ccc(Cl)cc2)n1,–,inactive: -9.2%
Cc1ccc(CNc2ccnc(-c3cccnc3)n2)cc1,"inconclusive: 26 µM [inhibitor, partial curve]",–

# Compounds shown so far with bromine (two):
SMILES,Potency,"activity, negative = inhibition"
Fc1ccc(CNc2ccnc(-c3ccc4c(c3)OCO4)n2)cc1Br,active: 13 µM,–
Brc1ccc(CNc2ccnc(-c3ccc4c(c3)OCO4)n2)cc1Br,"inconclusive: 9.23 µM [inhibitor, full curve]",–
